Test results: the supplement of paper PMC10849652
Some of the results follow.

Chains of the proteins cited; added tags and fusions are not shown. Lines headed by an entry give the natural chain unless they say otherwise; changes in a name come on top.
UniProt Q8IYW5, whole entry, looked up: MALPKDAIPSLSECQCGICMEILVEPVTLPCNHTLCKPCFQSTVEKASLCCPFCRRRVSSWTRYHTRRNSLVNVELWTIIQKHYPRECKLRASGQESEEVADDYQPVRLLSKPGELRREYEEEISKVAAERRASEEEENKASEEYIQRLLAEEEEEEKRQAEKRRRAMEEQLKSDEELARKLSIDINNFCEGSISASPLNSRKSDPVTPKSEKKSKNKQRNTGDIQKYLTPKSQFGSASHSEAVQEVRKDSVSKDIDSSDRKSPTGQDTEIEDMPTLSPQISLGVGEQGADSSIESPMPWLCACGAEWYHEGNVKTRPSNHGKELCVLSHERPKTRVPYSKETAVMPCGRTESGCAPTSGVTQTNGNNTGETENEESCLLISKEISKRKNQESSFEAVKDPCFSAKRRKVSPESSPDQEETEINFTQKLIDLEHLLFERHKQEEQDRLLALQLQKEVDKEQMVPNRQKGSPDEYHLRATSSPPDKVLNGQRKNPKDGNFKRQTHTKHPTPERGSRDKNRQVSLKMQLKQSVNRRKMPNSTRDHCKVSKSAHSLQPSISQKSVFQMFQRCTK
UniProt Q9H6T3, whole entry, looked up: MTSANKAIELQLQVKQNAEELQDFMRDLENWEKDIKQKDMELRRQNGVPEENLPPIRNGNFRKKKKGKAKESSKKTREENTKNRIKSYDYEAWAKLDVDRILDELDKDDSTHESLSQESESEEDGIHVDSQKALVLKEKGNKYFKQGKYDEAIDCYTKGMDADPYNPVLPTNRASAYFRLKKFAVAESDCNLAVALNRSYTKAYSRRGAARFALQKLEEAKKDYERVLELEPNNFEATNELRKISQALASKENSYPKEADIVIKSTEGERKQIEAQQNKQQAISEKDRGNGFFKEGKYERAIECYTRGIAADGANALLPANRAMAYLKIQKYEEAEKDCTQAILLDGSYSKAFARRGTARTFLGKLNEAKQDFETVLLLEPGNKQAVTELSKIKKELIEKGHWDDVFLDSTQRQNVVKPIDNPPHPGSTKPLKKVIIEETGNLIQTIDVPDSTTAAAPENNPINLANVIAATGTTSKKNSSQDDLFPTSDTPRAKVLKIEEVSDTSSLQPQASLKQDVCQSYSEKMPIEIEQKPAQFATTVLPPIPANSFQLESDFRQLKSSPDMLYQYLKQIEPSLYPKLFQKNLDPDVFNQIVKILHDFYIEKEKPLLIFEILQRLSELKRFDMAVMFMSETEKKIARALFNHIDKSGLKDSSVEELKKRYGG
UniProt Q6R327, whole entry, looked up: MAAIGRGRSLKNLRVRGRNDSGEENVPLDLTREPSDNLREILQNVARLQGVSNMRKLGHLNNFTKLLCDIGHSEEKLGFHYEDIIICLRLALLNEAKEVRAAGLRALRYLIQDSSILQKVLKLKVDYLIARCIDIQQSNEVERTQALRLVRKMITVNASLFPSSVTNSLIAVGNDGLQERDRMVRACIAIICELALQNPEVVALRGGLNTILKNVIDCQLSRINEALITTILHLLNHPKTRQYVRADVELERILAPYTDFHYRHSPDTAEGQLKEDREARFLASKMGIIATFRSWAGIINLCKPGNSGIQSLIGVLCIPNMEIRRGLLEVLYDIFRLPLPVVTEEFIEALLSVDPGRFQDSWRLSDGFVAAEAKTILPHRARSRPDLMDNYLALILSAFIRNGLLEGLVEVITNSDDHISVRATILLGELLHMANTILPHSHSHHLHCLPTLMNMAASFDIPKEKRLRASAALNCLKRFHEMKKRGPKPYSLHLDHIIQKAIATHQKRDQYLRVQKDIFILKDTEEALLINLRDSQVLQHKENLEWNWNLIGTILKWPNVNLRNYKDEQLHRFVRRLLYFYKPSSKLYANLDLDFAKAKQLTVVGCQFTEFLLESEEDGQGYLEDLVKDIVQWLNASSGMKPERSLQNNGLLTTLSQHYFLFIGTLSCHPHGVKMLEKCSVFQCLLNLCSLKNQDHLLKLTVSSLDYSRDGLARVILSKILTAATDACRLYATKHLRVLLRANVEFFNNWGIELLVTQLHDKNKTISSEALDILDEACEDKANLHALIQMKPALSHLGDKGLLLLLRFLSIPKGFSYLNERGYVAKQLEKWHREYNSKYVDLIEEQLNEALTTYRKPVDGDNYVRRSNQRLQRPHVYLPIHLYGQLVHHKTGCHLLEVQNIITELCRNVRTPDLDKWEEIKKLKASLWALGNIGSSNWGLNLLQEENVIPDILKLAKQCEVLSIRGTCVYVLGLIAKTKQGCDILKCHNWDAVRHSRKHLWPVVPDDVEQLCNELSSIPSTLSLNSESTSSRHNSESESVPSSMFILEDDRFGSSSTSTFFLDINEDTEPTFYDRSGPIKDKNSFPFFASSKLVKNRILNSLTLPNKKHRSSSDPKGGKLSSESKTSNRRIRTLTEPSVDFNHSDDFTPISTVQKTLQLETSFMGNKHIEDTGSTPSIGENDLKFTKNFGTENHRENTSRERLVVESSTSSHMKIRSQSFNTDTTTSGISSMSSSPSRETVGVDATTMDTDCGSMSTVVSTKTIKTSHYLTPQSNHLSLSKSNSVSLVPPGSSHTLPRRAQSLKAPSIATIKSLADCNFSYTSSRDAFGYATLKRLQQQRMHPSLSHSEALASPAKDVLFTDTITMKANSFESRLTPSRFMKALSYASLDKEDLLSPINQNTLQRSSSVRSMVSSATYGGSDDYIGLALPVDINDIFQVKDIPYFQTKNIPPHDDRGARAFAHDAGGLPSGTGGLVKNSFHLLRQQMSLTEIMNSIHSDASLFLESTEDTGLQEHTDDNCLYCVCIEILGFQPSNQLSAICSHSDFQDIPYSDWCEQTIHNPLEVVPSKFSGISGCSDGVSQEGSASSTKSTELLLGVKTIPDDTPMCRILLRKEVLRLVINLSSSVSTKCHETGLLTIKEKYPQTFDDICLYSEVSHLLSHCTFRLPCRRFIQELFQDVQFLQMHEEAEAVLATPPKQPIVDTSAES
UniProt P35244: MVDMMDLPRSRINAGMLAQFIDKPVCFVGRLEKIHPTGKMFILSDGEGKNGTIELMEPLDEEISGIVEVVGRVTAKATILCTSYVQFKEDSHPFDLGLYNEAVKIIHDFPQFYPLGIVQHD
UniProt Q9NTX7: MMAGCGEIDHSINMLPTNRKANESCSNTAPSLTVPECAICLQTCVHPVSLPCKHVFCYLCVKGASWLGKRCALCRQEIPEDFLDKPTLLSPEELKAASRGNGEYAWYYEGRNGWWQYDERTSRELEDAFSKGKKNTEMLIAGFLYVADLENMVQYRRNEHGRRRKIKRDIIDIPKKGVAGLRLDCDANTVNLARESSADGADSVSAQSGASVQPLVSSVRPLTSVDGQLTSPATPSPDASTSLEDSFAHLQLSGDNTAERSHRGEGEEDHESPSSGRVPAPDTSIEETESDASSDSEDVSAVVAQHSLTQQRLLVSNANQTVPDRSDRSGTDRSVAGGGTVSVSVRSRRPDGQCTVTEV
UniProt P84095: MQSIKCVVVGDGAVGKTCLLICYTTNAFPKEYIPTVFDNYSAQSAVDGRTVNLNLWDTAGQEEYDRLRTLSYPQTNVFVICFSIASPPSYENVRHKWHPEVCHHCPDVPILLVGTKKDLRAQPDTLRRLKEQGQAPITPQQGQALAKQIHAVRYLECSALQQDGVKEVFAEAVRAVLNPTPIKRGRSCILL
UniProt Q8TDP1: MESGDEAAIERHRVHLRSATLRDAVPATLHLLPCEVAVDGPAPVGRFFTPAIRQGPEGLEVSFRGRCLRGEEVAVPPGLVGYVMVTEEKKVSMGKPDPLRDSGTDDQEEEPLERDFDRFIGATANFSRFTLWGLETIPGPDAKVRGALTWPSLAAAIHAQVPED
UniProt Q96EP0: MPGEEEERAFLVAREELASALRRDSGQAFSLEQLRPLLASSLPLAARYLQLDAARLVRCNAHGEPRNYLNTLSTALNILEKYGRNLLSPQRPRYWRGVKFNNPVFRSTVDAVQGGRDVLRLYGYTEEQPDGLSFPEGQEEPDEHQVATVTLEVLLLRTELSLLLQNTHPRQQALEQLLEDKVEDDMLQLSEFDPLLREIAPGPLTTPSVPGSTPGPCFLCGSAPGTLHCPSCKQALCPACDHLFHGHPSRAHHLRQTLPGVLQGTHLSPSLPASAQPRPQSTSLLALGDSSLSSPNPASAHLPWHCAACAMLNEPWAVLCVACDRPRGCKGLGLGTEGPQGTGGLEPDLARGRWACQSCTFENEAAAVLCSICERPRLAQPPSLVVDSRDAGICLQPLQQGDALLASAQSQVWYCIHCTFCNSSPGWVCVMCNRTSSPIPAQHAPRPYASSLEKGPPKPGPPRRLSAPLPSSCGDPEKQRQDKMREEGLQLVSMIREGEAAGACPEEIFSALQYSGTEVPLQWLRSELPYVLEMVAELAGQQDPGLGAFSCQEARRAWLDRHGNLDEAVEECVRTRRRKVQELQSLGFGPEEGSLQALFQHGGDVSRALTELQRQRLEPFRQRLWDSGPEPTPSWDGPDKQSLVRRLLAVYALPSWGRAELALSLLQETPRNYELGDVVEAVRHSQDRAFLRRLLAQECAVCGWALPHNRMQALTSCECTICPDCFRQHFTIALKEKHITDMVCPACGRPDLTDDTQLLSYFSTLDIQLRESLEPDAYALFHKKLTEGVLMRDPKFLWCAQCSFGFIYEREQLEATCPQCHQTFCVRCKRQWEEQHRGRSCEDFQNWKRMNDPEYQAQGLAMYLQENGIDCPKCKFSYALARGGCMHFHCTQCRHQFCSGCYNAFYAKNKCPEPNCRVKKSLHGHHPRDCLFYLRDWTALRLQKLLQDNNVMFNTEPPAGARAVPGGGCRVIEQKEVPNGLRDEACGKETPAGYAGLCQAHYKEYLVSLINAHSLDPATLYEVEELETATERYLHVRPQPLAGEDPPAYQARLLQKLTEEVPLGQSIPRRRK
UniProt Q9BWH6: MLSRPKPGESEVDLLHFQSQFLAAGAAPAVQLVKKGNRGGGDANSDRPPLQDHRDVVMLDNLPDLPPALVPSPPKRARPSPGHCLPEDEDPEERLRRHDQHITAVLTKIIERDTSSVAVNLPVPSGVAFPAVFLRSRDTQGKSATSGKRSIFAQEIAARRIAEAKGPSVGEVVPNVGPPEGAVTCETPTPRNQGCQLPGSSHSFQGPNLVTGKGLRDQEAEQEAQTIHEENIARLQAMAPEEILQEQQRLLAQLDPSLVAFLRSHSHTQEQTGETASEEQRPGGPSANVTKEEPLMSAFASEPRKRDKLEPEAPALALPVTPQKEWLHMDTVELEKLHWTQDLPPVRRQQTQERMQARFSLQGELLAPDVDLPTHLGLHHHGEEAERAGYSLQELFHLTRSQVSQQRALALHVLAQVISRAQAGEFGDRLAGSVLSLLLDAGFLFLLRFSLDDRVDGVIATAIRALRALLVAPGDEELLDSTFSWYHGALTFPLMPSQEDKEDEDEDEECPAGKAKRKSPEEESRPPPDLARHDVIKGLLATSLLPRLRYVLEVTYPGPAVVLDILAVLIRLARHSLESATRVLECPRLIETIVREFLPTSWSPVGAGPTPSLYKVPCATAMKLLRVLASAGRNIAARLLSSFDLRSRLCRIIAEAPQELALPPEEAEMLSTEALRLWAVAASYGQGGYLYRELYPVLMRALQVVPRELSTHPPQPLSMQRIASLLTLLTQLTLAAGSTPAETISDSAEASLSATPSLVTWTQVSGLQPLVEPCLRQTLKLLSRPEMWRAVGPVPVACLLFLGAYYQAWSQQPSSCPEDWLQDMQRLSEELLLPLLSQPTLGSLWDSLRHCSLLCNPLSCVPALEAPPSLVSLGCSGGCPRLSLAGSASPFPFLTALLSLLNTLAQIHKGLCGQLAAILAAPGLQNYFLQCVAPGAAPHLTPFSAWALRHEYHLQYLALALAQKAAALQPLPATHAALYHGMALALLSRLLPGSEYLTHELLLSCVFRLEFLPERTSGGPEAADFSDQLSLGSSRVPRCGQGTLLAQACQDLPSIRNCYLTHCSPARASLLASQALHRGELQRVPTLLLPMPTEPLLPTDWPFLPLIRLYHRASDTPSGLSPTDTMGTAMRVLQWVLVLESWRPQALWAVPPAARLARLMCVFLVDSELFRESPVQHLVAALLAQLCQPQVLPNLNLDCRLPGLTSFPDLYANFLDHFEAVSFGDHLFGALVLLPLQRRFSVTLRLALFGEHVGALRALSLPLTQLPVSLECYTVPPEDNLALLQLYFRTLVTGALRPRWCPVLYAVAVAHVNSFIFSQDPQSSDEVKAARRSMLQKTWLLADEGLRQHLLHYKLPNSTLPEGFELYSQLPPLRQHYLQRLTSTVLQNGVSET
UniProt P61586, whole entry, looked up: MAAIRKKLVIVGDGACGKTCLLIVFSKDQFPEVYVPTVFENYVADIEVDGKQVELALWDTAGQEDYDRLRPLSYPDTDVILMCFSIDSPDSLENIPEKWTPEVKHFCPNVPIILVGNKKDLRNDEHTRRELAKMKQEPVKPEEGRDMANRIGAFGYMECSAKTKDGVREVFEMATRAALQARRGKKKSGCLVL
UniProt Q9P0P0: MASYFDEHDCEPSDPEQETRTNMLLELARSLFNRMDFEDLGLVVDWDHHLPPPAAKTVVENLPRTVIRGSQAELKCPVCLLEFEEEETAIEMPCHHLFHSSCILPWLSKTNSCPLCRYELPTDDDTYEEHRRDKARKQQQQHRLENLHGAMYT

Legend:
Test in all cases: log2 fold change, soluble protein after heating vs DMSO (PISA); higher = thermal stabilisation; K562 lysate, 10 uM; active = over 0.2 and 3.5 SD of the protein, either way, in both replicates (recomputed)
[1] = compound: C1=CC=C(C=C1)[C@H](COC2=CC3=C(C=C2)NC(=O)N3)NC(=O)C4=CC=CN(C4=O)CC5=CC(=C(C=C5)F)F
Procedure, shortened: (§1)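 Soluble protein was defined as the supernatant remaining after 21,000xg for 90 min, following pooling of heated aliquots and adjustment to 0.5% NP-40 at 4°C. Before that, crude K562 extract at 1 mg/mL protein in PBS pH 7.4 with 1 mM MgCl2 was treated with 10 μM compound for 30 min and heated for 3 min across 48°C-58°C. Quantification used TMTpro 16plex LC-MS/MS with channel sums equalised, and values are log-two fold changes in thermal stability relative to solvent controls from duplicates.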

[2] = compound: CC1=C(SC2=C1C(=N[C@H](C3=NN=C(N32)C)CC(=O)N)C4=CC=C(C=C4)Cl)C
Procedure, shortened: as §1

[3] = compound: CC1=C2C(=CC=C1)N=C(N(C2=O)C3=CC=CC=C3C)CN4C=NC5=C(N=CN=C54)N
Procedure, shortened: as §1

[4] = compound: Cc1sc2c(c1C)C(c1ccc(Cl)cc1)=N[C@@H](CC(=O)OC(C)(C)C)c1nnc(C)n1-2
Procedure, shortened: as §1

[5] = compound: c1ccc([C@@H]2C[C@H]2NC2CCNCC2)cc1
Procedure, shortened: as §1

Measured: log2 fold change

RMDN1 (UniProt Q96DB5)
inactive: [1] -0.017 | [2] 0.022 | [3] -0.005 | [4] 0.032 | [5] 0.053

RHEB (UniProt Q15382)
inactive: [1] -0.029 | [2] 0.069 | [3] -0.008 | [4] -0.025 | [5] -0.003

RIOK3 (UniProt O14730)
inactive: [1] 0.002 | [2] 0.052 | [3] 0.053 | [4] -0.007 | [5] 0.016

RNH1 (UniProt P13489)
inactive: [1] -0.05 | [2] -0.071 | [3] -0.006 | [4] 0.025 | [5] -0.18

RNF168 (UniProt Q8IYW5)
inactive: [1] -0.008 | [2] -0.052 | [3] 0.017 | [4] 0.061 | [5] -0.068

RIOX2 (UniProt Q8IUF8)
inactive: [1] 0.024 | [2] 0.03 | [3] -0.024 | [4] -0.018 | [5] 0.111

RIC8A (UniProt Q9NPQ8)
inactive: [1] -0.047 | [2] 0.012 | [3] 0.019 | [4] 0.016 | [5] 0.01

Random excerpt: three records from the list.
RIOX2 (UniProt Q8IUF8)
inactive: [1] 0.024 | [2] 0.03 | [3] -0.024 | [4] -0.018 | [5] 0.111

RHEB (UniProt Q15382)
inactive: [1] -0.029 | [2] 0.069 | [3] -0.008 | [4] -0.025 | [5] -0.003

RIC8A (UniProt Q9NPQ8)
inactive: [1] -0.047 | [2] 0.012 | [3] 0.019 | [4] 0.016 | [5] 0.01

Next results.

RMI1 (UniProt Q9H9A7)
inactive: [1] 0.141 | [2] -0.155 | [3] -0.131 | [4] -0.083 | [5] 0.011

RPL27A (UniProt P46776)
inactive: [1] 0.033 | [2] -0.025 | [3] -0.004 | [4] -0.068 | [5] -0.029

RIPOR1 isoform 4 (UniProt Q6ZS17)
inactive: [1] -0.002 | [2] -0.028 | [3] 0.002 | [4] 0.092 | [5] 0.072

RPA1 (UniProt P27694)
inactive: [1] -0.015 | [2] 0.012 | [3] 0.005 | [4] -0.02 | [5] 0.054

RPL23 (UniProt P62829)
inactive: [1] 0.008 | [2] -0.001 | [3] 0.02 | [4] 0.008 | [5] 0.011

RNF166 (UniProt Q96A37)
inactive: [1] 0.105 | [2] -0.157 | [3] -0.005 | [4] 0.08 | [5] -0.148

ROS1 (UniProt P08922)
inactive: [1] -0.047 | [2] 0.048 | [3] 0.058 | [4] -0.042 | [5] -0.178

RPL26 (UniProt P61254)
inactive: [1] 0.147 | [2] -0.189 | [3] 0.019 | [4] 0.236 | [5] 0.167

RPL18A (UniProt Q02543)
inactive: [1] 0.065 | [2] -0.007 | [3] 0.023 | [4] -0.017 | [5] 0.002

RPAP3 (UniProt Q9H6T3)
inactive: [1] -0.01 | [2] 0.025 | [3] 0.011 | [4] 0.005 | [5] 0.021

RNF187 (UniProt Q5TA31)
inactive: [1] -0.015 | [2] -0.023 | [3] 0.015 | [4] -0.083 | [5] 0

RICTOR isoform 3 (UniProt Q6R327)
inactive: [1] 0.097 | [2] -0.296 | [3] 0.391 | [4] -0.104 | [5] 0.018

RIC1 (UniProt Q4ADV7)
inactive: [1] -0.086 | [2] 0.186 | [3] 0 | [4] 0.081 | [5] 0.138

RIDA (UniProt P52758)
inactive: [1] 0.025 | [2] -0.091 | [3] -0.01 | [4] -0.029 | [5] 0.012

RNPS1 (UniProt Q15287)
inactive: [1] 0.014 | [2] -0.003 | [3] 0.06 | [4] 0.036 | [5] 0.016

RNF130 (UniProt Q86XS8)
inactive: [1] -0.042 | [2] -0.014 | [3] -0.029 | [4] 0.103 | [5] 0.076

RO60 (UniProt P10155)
inactive: [1] 0.017 | [2] -0.013 | [3] -0.022 | [4] 0.025 | [5] 0.057

RNF214 (UniProt Q8ND24)
inactive: [1] -0.038 | [2] 0 | [3] 0.002 | [4] 0.077 | [5] 0.016

RNASET2 (UniProt O00584)
inactive: [1] 0.009 | [2] -0.028 | [3] -0.013 | [4] -0.012 | [5] -0.046

RNF14 (UniProt Q9UBS8)
inactive: [1] -0.01 | [2] 0.024 | [3] -0.001 | [4] -0.027 | [5] -0.042

RHOB (UniProt P62745)
inactive: [1] -0.013 | [2] -0.067 | [3] 0.008 | [4] 0.011 | [5] -0.002

RNF170 (UniProt Q96K19)
inactive: [1] -0.097 | [2] -0.115 | [3] 0.149 | [4] 0.285 | [5] -0.026

RPA3 (UniProt P35244)
inactive: [1] 0.004 | [2] -0.014 | [3] 0.017 | [4] 0.046 | [5] 0.018

RPL13A (UniProt P40429)
inactive: [1] -0.01 | [2] 0.014 | [3] 0.01 | [4] 0.009 | [5] 0.017

RING1 (UniProt Q06587)
inactive: [1] 0.004 | [2] 0.025 | [3] 0.008 | [4] 0.032 | [5] -0.021

RNF146 (UniProt Q9NTX7)
inactive: [1] 0.002 | [2] -0.04 | [3] 0.002 | [4] 0.073 | [5] -0.044

RPL14 (UniProt P50914)
inactive: [1] 0.042 | [2] -0.05 | [3] -0.013 | [4] 0.052 | [5] 0.009

RHOG (UniProt P84095)
inactive: [1] -0.007 | [2] 0.02 | [3] 0.004 | [4] 0.015 | [5] -0.015

RNASEH2C (UniProt Q8TDP1)
inactive: [1] -0.006 | [2] -0.02 | [3] 0.012 | [4] 0.004 | [5] -0.04

RMND1 (UniProt Q9NWS8)
inactive: [1] -0.028 | [2] 0.074 | [3] 0.001 | [4] 0.053 | [5] 0.004

RNF31 (UniProt Q96EP0)
inactive: [1] 0.056 | [2] -0.05 | [3] 0.003 | [4] 0.039 | [5] 0.019

RPL30 (UniProt P62888)
inactive: [1] 0.008 | [2] -0.007 | [3] -0.014 | [4] -0.007 | [5] -0.024

RILPL1 (UniProt Q5EBL4)
inactive: [1] 0.01 | [2] 0.038 | [3] 0.008 | [4] 0.004 | [5] 0.004

RIOK2 (UniProt Q9BVS4)
inactive: [1] 0.002 | [2] -0.018 | [3] 0.009 | [4] -0.023 | [5] -0.022

RPL17 isoform 3 (UniProt P18621)
inactive: [1] 0.066 | [2] -0.005 | [3] -0.013 | [4] 0.027 | [5] 0.036

RPAP1 (UniProt Q9BWH6)
inactive: [1] -0.006 | [2] 0.018 | [3] 0.015 | [4] -0.038 | [5] 0.028

RHOA (UniProt P61586)
inactive: [1] 0.177 | [2] 0.06 | [3] 0.038 | [4] 0.02 | [5] 0.07

RPL19 (UniProt P84098)
inactive: [1] 0.04 | [2] -0.022 | [3] -0.026 | [4] 0.052 | [5] 0.019

RPL12 (UniProt P30050)
inactive: [1] 0.007 | [2] -0.013 | [3] -0.025 | [4] -0.031 | [5] -0.045

RPL10A (UniProt P62906)
inactive: [1] 0.001 | [2] 0.028 | [3] -0.02 | [4] 0.019 | [5] -0.001

RPL10 (UniProt P27635)
inactive: [1] -0.019 | [2] -0.005 | [3] -0.011 | [4] 0.027 | [5] 0.094

RPIA (UniProt P49247)
inactive: [1] -0.037 | [2] 0.018 | [3] -0.005 | [4] -0.042 | [5] 0

RPL34 (UniProt P49207)
inactive: [1] -0.003 | [2] 0.033 | [3] -0.018 | [4] -0.022 | [5] -0.039

RNF20 (UniProt Q5VTR2)
inactive: [1] -0.005 | [2] -0.01 | [3] 0.003 | [4] 0.001 | [5] 0.011

RNF181 (UniProt Q9P0P0)
inactive: [1] 0.03 | [2] -0.145 | [3] -0.031 | [4] 0.022 | [5] 0.066

RNF213, A0A0A0MTC1
inactive: [1] -0.02 | [2] -0.007 | [3] 0.069 | [4] 0.004 | [5] 0.045
